Assay results: patent publication US7816325B2, “Secondary binding site of dipeptidyl peptidase IV (DP IV)” (OSI Pharmaceuticals, Inc., priority 2003, dated 2010)
At least one peptide structure holds a part that was inferred or is arguable (an end, a ring closure or a residue). Where a SMILES comes first, the peptide text is derived from it.

Tested on: DP IV
Assay: DP IV-catalyzed peptide truncation test with or without preincubation with effector peptide
Assay type: biochemical
Conditions: DP IV preincubated with the peptide
Protocol: 250 single laser-shot spectra were accumulated.
In order to investigate directly the influence of the test compounds TFTSDY, TFTDDY and H-Ser-D-Glu-Thr-Gly-D-Val-D-Lys-D-Val-OH on the DP IV-catalyzed peptide hydrolysis the MALDI-TOF assay was used.
As described before (determination of t1/2) DP IV and the test compounds were preincubated and the reaction was started by adding the enzyme/hexapeptide mixture to substrate/buffer mix. The control reaction mixture consisted of buffer, enzyme and substrate. From the curves of the first order exponential the initial rate (vi) for the control and the reversible inhibited reaction was calculated.

## C[C@@H](O)[C@H](N)C(=O)N[C@@H](Cc1ccccc1)C(=O)N[C@H](C(=O)N[C@@H](CC(=O)O)C(=O)N[C@@H](CC(=O)O)C(=O)N[C@@H](Cc1ccc(O)cc1)C(=O)O)[C@@H](C)O [TFTDDY] (H-TFTDDY-OH)
  affinity of larger oligopeptides such as GIP, VIP, glucagon: considerably reduced
  binding and hydrolysis of small dipeptide substrates: only slightly influenced
